Assay results from patent US7256182B2, “Gene delivery compositions and methods” (priority 1997, dated 2007).
For at least one compound, name, drawing or mass did not settle the structure. Some entries share one result that the patent states for a list of compounds. Residues, ends and D or L forms follow the SMILES beside them.

Test system: cardiac myocytes of acutely explanted rabbit heart
Experiment: Adenovirus gene transfer in Langendorff-perfused explanted rabbit heart; β-galactosidase staining of isolated myocytes
Procedure: Adenovirus vectors. Adβgal contained the E. coli lac Z gene driven by the human cytomegalovirus (CMV) immediate early promoter. Virus stocks were expanded as previously described in Graham F L, Prevec L: Manipulation of adenovirus vectors, in Murray E J (ed): Methods in molecular biology. Clifton, N.J., Humana, 1991, pp 109-128, aliquoted in small volumes, and stored in phosphate-buffered saline (PBS) with 10% sucrose at −80° C. Viral titers were determined by the average of two plaque assays performed using a traditional method as described in Methods in molecular biology, supra.
Statistical Analysis. Unless otherwise stated, all experiments were performed in triplicate and the data are presented as mean ±s.d. Statistical significance was determined at the 5% level using the unpaired Student's t-test.
Baseline conditions for the Langendorff-perfusion experiments included a coronary flow rate of 30 ml/min, and perfusion with Krebs solution containing 1.0 mmol/L Ca^2+ and 1.0×10^8 pfu/ml of Adβgal at 37° C. All infections occurred in Krebs solution.
Acutely explanted rabbit heart (New Zealand White; 2-3 kg total body weight) were employed for gene transfer tests of this Example 1 and the following Example 2. The rabbits received heparin anticoagulation (1000 units IV) prior to pentobarbital (50 mg/kg IV). […]

NC(N)=NCCC[C@H](NC(=O)[C@H](Cc1ccccc1)NC(=O)[C@@H]1CCCN1C(=O)[C@H](CO)NC(=O)[C@H](Cc1ccccc1)NC(=O)CNC(=O)[C@@H]1CCCN1C(=O)[C@@H]1CCCN1C(=O)[C@@H](N)CCCN=C(N)N)C(=O)O [bradykinin] (H-RPPGFSPFR-OH)
change in percentage of infected myocytes by supplemental agent (agent perfused to enhance microvascular permeability, versus baseline): significant increase
percentage of infected myocytes (pretreatment 500 ml normal Krebs with 10^-5 M agent over 15 minutes, agent also present during Adβgal infection): 65-67%
